Experimental data from PubChem BioAssay AID248 (DTP/NCI, 2004).
The list shows only some results of the screen, not a fair sample: it gathers tests that were run many times, whatever their T/C, doses with no T/C, and many T/C values between a quarter and a half above the control. Other doses and runs of a compound stand elsewhere. T/C is the treated group as % of the vehicle group. Some entries give survivors of the animals treated and no T/C: the source holds a T/C of zero for them, seemingly a mark for toxic or unscored doses. Some survivor counts are full or nearly so, which does not show that the dose was tolerated: the source hardly ever lists a survival T/C far under the control, and the zero likely stands for such cases as well. Counts of survivors are from the toxicity check (mostly the fifth day) where no day follows; animals may have died later. Schedules are NCI's codes, taken here to give the interval after Q, in days (D) or hours (H), and the number of doses after X. Some molecules as drawn cover several salts, stereoisomers or complexes of the source; a dose is that of the sample tested. Some entries hold several experiments; the values are given in rising order. Some schedule codes hold Z or #, which are not explained here. Where survival is the endpoint, this PubChem deposit counts one and a half times the control or more as active, and values a quarter to a half above the control carry no call in these data; other NCI protocols may use other cut-offs. Some T/C values carry the count of animals alive at the toxicity check (mostly the fifth day); without a count, all were alive then.

Test system: L1210 leukemia ip in BDF1 mice, survival T/C
Experiment: NCI In Vivo Anticancer Drug Screen. Data for tumor model L1210 Leukemia (intraperitoneal) in B6D2F1 (BDF1) mice
Settings: T/C endpoint: mean survival time, higher T/C = longer survival
[1] = dose: 100.0 mg/kg/injection, schedule: Q04DX003 (ip), vehicle: Klucel (hydroxypropylcellulose) (HPC)
[2] = dose: 200.0 mg/kg/injection, schedule: Q04DX003 (ip), vehicle: Klucel (hydroxypropylcellulose) (HPC)
[3] = dose: 400.0 mg/kg/injection, schedule: Q04DX003 (ip), vehicle: Klucel (hydroxypropylcellulose) (HPC)
[4] = dose: 100.0 mg/kg/injection, schedule: Q01DX001 (ip), vehicle: other
[5] = dose: 200.0 mg/kg/injection, schedule: Q01DX001 (ip), vehicle: other
[6] = dose: 400.0 mg/kg/injection, schedule: Q01DX001 (ip), vehicle: other
[7] = dose: 400.0 mg/kg/injection, schedule: Q04DX003 (ip), vehicle: saline with Tween-80
[8] = dose: 400.0 mg/kg/injection, schedule: Q01DX009 (ip), vehicle: Klucel (hydroxypropylcellulose) (HPC)

c1ccc2c(c1)C1c3cccc[n+]3C2CC1n1c2ccccc2c2ccccc21 (stereo not drawn)
survivor count (dose: 50.0 mg/kg/injection, schedule: Q01DX009 (ip), vehicle: Klucel (hydroxypropylcellulose) (HPC)): 2 of 6 | survivor count [1]: 0 of 6 | survivor count [2]: 0 of 6 | survivor count [3]: 0 of 6

O=C1NC(=O)C(F)(F)C(O)N1 (stereo not drawn)
T/C (dose: 65.0 mg/kg/injection, schedule: Q01DX009 (ip), vehicle: saline): 127 % of control | T/C (dose: 100.0 mg/kg/injection, schedule: Q01DX009 (ip), vehicle: saline): 140 % of control | T/C (dose: 150.0 mg/kg/injection, schedule: Q01DX009 (ip), vehicle: saline): 145 % of control

Cc1ccc(C(C)(C)C)c(OCC2=NCCN2)c1
survivor count [1]: 3 of 6 | survivor count [2]: 0 of 6 | survivor count [3]: 0 of 6

Nc1nccc(NC(c2ccccc2)c2ccccc2)c1N
survivor count (dose: 25.0 mg/kg/injection, schedule: Q01DX009 (ip), vehicle: DMSO): 3 of 6 | survivor count (dose: 50.0 mg/kg/injection, schedule: Q01DX009 (ip), vehicle: DMSO): 2 of 6 | survivor count [4]: 1 of 6 | survivor count [5]: 0 of 6 | survivor count [6]: 0 of 6

O=C1c2ccccc2C(=O)N1CCc1ccccn1
survivor count [7]: 1 of 6

CSc1nc(C)c(Br)c(N2CC2)n1
survivor count (dose: 25.0 mg/kg/injection, schedule: Q01DX Z (ip), vehicle: methylcellulose (MC)): 0 of 6 | survivor count (dose: 100.0 mg/kg/injection, schedule: Q01DX Z (ip), vehicle: methylcellulose (MC)): 0 of 6 | survivor count (dose: 200.0 mg/kg/injection, schedule: Q01DX Z (ip), vehicle: methylcellulose (MC)): 0 of 6

O=C(Nc1ccc(C2=NCCCN2)cc1)Nc1cccc(C(=O)Nc2ccc(C3=NCCCN3)cc2)c1
T/C (dose: 10.0 mg/kg/injection, schedule: Q01DX Z (ip), vehicle: carboxymethylcellulose (CMC)): 135 % of control | survivor count (dose: 50.0 mg/kg/injection, schedule: Q01DX Z (ip), vehicle: carboxymethylcellulose (CMC)): 3 of 6

Nc1nc2ccc(CNc3ccc(C(=O)NC(CC(=O)O)C(=O)O)cc3)cc2c(=O)[nH]1 (stereo not drawn)
T/C (dose: 100.0 mg/kg/injection, schedule: Q04DX003 (ip), vehicle: saline): 142 % of control | T/C (dose: 200.0 mg/kg/injection, schedule: Q04DX003 (ip), vehicle: saline): 133 % of control | survivor count (dose: 400.0 mg/kg/injection, schedule: Q01DX001 (ip), vehicle: saline with Tween-80): 3 of 6 | survivor count (dose: 400.0 mg/kg/injection, schedule: Q04DX003 (ip), vehicle: saline): 3 of 6

CCCNC1=C(C)C(=O)C2=C(C1=O)[C@H](COC(N)=O)[C@]1(OC)[C@@H]3N[C@@H]3CN21
T/C (dose: 1.5 mg/kg/injection, schedule: Q01DX009 (ip), vehicle: acetone): 129 % of control | T/C (dose: 2.7 mg/kg/injection, schedule: Q01DX009 (ip), vehicle: acetone): 145 % of control | T/C (dose: 6.6 mg/kg/injection, schedule: Q01DX001 (ip), vehicle: acetone): 135 % of control | T/C (dose: 9.9 mg/kg/injection, schedule: Q01DX001 (ip), vehicle: acetone): 143 % of control

CC[n+]1c(C)ccc2ccccc21
survivor count (dose: 100.0 mg/kg/injection, schedule: Q01DX001 (ip), vehicle: saline): 2 of 4 | survivor count (dose: 100.0 mg/kg/injection, schedule: Q01DX009 (ip), vehicle: Klucel (hydroxypropylcellulose) (HPC)): 0 of 6 | survivor count [1]: 0 of 6 and 5 of 6 | survivor count (dose: 200.0 mg/kg/injection, schedule: Q01DX001 (ip), vehicle: saline): 0 of 4 | survivor count (dose: 200.0 mg/kg/injection, schedule: Q01DX009 (ip), vehicle: Klucel (hydroxypropylcellulose) (HPC)): 0 of 6 | survivor count [2]: 0 of 6 | survivor count (dose: 400.0 mg/kg/injection, schedule: Q01DX001 (ip), vehicle: saline): 0 of 4 | survivor count [8]: 0 of 6 | survivor count [3]: 0 of 6

Cc1cc2c3ccc(C)[n+](C)c3ccc2n1C
survivor count (dose: 10.0 mg/kg/injection, schedule: Q01DX009 (ip), vehicle: saline): 0 of 6 | survivor count (dose: 19.0 mg/kg/injection, schedule: Q01DX001 (ip), vehicle: saline): 1 of 6 | survivor count (dose: 38.0 mg/kg/injection, schedule: Q01DX001 (ip), vehicle: saline): 0 of 6 | survivor count (dose: 40.0 mg/kg/injection, schedule: Q04DX003 (ip), vehicle: saline): 0 of 6

CCN(CC)CCSC(=S)N1c2ccccc2Sc2ccccc21
survivor count (dose: 280.0 mg/kg/injection, schedule: Q01DX009 (ip), vehicle: saline): 2 of 6

CCN1CCCC(Nc2cc(C)nc(/N=C(\N)Nc3ccc(Cl)c(Cl)c3)n2)C1 (stereo not drawn)
survivor count (dose: 150.0 mg/kg/injection, schedule: Q01DX001 (ip), vehicle: saline): 3 of 6 | survivor count (dose: 300.0 mg/kg/injection, schedule: Q01DX001 (ip), vehicle: saline): 0 of 6

NC(CCl)CCl
survivor count (dose: 50.0 mg/kg/injection, schedule: Q01DX Z (ip), vehicle: other): 0 of 7

[Co+2].[NH-]C(CC(N)=O)C(=O)O.[NH-]C(CC(N)=O)C(=O)O (stereo not drawn)
survivor count (dose: 400.0 mg/kg/injection, schedule: Q04DX002 (ip), vehicle: saline): 0 of 3

CC[Si](CC)(CC)c1ccc(CCNCCS)s1
survivor count (dose: 300.0 mg/kg/injection, schedule: Q04DX003 (ip), vehicle: saline): 0 of 6

O=C1C(Br)=CC(=C2C=C(Br)C(=O)C(Br)=C2)C=C1Br
survivor count [3]: 5 of 6

Cc1ccc(SC(=O)CCl)cc1
T/C (dose: 100.0 mg/kg/injection, schedule: Q01DX009 (ip), vehicle: gum acacia): 137 % of control [5 of 6 alive] | survivor count (dose: 400.0 mg/kg/injection, schedule: Q01DX009 (ip), vehicle: gum acacia): 4 of 6

CCOC(=O)c1cc2ccccc2oc1=O
survivor count [4]: 0 of 4 | survivor count [5]: 0 of 4 | survivor count (dose: 200.0 mg/kg/injection, schedule: Q04DX003 (ip), vehicle: saline with Tween-80): 0 of 6 | survivor count [6]: 0 of 4

C1CC[C@@H]2NCCC[C@H]2C1
survivor count (dose: 400.0 mg/kg/injection, schedule: Q01DX001 (ip), vehicle: carboxymethylcellulose (CMC)): 0 of 4

CC(C)=CCC/C(C)=C/Cn1cnc2c(ncn2C2OC(CO)C(O)C2O)c1=O (stereo not drawn)
survivor count (dose: 100.0 mg/kg/injection, schedule: Q01DX005 (ip), vehicle: saline): 3 of 6 | survivor count (dose: 200.0 mg/kg/injection, schedule: Q01DX005 (ip), vehicle: saline): 3 of 6

CC(=O)Nc1cc(C(=O)Nc2ccc(C3=NCCN3)cc2)ccc1C(=O)Nc1ccc(C2=NCCN2)cc1
survivor count (dose: 30.0 mg/kg/injection, schedule: Q01DX Z (ip), vehicle: saline): 0 of 6 | survivor count (dose: 60.0 mg/kg/injection, schedule: Q01DX Z (ip), vehicle: saline): 0 of 6 | survivor count (dose: 120.0 mg/kg/injection, schedule: Q01DX Z (ip), vehicle: saline): 0 of 6

O=C(O)c1cc(=O)[nH]c(=O)[nH]1
survivor count (dose: 200.0 mg/kg/injection, schedule: Q04DX002 (ip), vehicle: Klucel (hydroxypropylcellulose) (HPC)): 1 of 3 | survivor count (dose: 400.0 mg/kg/injection, schedule: Q04DX002 (ip), vehicle: Klucel (hydroxypropylcellulose) (HPC)): 1 of 3

CC#CC(O)(C(=O)OC1CCN(C)CC1)C(C)CC (stereo not drawn)
survivor count (dose: 200.0 mg/kg/injection, schedule: Q01DX009 (ip), vehicle: saline with Tween-80): 4 of 6 | survivor count [7]: 0 of 6

CC(=O)OCC1OC(N2C(=O)/C(=C/c3ccncc3)SC2=S)C(OC(C)=O)C(OC(C)=O)C1OC(C)=O (stereo not drawn)
survivor count (dose: 200.0 mg/kg/injection, schedule: Q01DX005 (ip), vehicle: other): 6 of 6

Cc1c(Cl)cccc1N1C(=O)CC(Sc2ccccc2N)C1=O (stereo not drawn)
survivor count [2]: 6 of 6 | survivor count [8]: 6 of 6
